Assay [1] concerns the target T1, GSDMB-1-HA (Gasdermin B isoform 1, HA-tagged), stably expressed in MCF7 cells (human) (UniProt Q8TAX9).
T1 sequence: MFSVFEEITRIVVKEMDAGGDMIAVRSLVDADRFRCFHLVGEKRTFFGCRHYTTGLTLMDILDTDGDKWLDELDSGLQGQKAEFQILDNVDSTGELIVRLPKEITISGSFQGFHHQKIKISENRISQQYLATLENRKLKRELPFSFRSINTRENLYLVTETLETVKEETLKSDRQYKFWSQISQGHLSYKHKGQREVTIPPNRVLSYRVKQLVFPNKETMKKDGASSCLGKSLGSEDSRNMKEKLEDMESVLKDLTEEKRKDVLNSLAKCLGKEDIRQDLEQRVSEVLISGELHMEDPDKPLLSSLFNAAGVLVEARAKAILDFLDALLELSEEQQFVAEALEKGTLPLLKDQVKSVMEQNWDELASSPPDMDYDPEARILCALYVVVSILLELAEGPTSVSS
Briefly: affinity purification with mass spectrometry; immunoprecipitation from MCF7-G1 and MCF7-G2 cell lines followed by mass spectrometry (MALDI peptide mass fingerprinting and MS/MS); detailed protocol in Protocol S1 and S2.

By UniProt entry, the sequences of proteins in these tests, tags left out.
UniProt P08238: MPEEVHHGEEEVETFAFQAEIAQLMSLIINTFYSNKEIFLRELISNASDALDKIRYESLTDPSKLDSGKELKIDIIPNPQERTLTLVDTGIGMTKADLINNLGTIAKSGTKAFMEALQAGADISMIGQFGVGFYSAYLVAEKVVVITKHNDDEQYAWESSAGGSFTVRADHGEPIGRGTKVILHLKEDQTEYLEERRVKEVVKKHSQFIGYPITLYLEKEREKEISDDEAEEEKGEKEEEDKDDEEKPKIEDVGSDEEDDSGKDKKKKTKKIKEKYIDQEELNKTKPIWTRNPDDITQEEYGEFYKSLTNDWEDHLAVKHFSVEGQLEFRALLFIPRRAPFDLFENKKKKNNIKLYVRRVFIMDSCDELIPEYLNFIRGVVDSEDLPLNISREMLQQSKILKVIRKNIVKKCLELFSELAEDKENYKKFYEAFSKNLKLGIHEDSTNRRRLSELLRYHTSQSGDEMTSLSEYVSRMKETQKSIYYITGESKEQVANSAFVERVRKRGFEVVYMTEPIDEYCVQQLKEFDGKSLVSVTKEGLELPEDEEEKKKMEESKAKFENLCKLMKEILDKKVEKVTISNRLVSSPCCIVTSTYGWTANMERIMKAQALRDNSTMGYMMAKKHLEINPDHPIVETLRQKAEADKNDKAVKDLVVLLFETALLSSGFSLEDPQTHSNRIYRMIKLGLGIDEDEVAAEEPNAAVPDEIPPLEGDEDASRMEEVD

In assay [2] the target is T2, GSDMB-2-HA (Gasdermin B isoform 2, HA-tagged), stably expressed in MCF7 cells (human) (UniProt Q8TAX9).
T2 sequence: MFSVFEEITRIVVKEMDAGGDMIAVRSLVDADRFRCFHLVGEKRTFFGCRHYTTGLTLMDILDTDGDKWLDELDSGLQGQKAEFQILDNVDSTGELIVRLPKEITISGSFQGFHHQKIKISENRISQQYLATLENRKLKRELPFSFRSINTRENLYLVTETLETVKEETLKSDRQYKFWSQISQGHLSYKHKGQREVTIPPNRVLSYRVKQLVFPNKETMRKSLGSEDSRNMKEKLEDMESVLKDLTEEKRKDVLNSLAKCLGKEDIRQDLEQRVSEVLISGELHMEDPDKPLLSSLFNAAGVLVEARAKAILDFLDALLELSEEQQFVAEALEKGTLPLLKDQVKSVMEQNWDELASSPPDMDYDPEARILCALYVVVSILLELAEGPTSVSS
The assay is described as above.

These are yes or no findings as the source states them, for the method shown. Binding seen in cells or lysates may run through a third protein. These calls come from enrichment with a bait or labelling near it, and not all partners need be listed. Sequences can lack the tags named with a protein.

In the case of “Heat shock protein 90 β (Hsp90β), endogenous in MCF7 cells (from UniProt P08238 1-724)”, the binding entry in assay [1] and in assay [2] was “binds” throughout.

(Values after PMC3967990.)
